Results are given in words; binding and its absence hold for the method and conditions named. Binding seen in cells or lysates may run through a third protein. Some entries that bind do so weakly or less than the wild type. Tags and fused reporters may be left off the sequences shown.
Molecular target: T1, HA-KCTD10, full length (UniProt Q9H3F6)
T1 sequence: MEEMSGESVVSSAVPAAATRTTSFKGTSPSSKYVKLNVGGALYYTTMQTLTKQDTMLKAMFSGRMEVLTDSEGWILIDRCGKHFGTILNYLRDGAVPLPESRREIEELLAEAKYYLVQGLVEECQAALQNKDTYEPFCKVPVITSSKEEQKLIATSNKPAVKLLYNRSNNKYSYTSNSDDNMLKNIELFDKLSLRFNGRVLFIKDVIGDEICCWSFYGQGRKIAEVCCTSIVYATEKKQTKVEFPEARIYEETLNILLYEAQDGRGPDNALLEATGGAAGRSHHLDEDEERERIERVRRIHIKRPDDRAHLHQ
Assay: co-IP; cells transfected with HA-KCTD10; whole cell extracts immunoprecipitated with anti-tag antibody and protein A/G beads; endogenous β-catenin detected by blot; rabbit preimmune IgG as negative control

By UniProt entry, the sequences of proteins in these tests, tags left out.
UniProt P35222: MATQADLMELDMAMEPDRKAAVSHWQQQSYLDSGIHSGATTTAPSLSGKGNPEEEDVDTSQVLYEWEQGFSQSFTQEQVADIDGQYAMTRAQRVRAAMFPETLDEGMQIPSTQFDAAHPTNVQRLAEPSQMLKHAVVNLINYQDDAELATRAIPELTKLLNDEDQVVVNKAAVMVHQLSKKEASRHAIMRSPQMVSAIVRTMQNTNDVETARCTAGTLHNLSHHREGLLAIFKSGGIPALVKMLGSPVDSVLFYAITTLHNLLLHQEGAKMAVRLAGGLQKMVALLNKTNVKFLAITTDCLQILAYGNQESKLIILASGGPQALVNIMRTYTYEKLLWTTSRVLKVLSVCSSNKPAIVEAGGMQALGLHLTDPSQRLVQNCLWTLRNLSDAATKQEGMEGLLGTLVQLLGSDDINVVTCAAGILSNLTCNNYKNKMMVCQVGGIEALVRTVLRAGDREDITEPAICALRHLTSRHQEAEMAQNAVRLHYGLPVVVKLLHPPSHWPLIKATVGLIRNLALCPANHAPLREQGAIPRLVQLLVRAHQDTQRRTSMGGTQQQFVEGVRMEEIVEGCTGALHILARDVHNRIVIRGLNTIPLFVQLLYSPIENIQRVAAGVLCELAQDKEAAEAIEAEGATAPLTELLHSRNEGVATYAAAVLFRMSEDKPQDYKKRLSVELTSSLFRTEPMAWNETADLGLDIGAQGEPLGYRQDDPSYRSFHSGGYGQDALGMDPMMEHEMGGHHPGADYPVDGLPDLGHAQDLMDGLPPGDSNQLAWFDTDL

β-catenin (cadherin-associated protein, beta 1), endogenous (from UniProt P35222 1-781)
binding: binds

Source: article PMC12378768
